The values that follow come from paper PMC5253665.

The chains behind the UniProt entries cited, without tags or fusion partners. Residues count along the entry.
UniProt P29460, residues 23-328: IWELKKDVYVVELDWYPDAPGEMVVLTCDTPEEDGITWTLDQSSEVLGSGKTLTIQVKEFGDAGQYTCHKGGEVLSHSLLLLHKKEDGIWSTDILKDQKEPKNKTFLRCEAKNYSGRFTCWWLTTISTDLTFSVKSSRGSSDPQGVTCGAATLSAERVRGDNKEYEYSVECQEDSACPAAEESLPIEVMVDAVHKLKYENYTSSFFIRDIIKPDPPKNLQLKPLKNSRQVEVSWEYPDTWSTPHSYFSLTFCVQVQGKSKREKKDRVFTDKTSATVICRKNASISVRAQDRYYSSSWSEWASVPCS
UniProt P29459, residues 23-219: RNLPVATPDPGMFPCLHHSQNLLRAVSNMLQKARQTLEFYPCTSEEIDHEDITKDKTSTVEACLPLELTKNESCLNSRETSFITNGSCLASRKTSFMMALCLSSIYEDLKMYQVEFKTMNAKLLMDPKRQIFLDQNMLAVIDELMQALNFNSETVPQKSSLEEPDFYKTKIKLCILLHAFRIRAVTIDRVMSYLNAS

The target of experiment [1] is P40 (subunit that forms IL-12 with P35) (human (endogenous in PDAC tumour tissue and primary PDAC cell lines)) (UniProt P29460). In words: co-IP; endogenous proteins in lysates of PDAC tumour tissue (three patients) and of PDAC primary cell lines; immunoprecipitation with antibodies to P35, EBI3, P28 or P40, western blot; the supernatant left after immunoprecipitation was blotted too. In general terms: In western blotting, separated proteins are transferred to a membrane and probed.

In experiment [2] the target is T1, EBV-induced gene 3 (EBI3) subunit of IL-35 (human (endogenous in PDAC tumour tissue and primary PDAC cell lines)) (UniProt Q14213).
T1 sequence: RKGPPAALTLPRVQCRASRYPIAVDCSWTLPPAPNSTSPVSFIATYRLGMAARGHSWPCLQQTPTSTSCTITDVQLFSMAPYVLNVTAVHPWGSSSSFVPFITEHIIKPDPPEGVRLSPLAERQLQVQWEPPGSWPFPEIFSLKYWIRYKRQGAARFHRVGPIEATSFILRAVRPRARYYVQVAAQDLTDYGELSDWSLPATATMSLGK
Described as above.

No constants are given. Whether binding was seen depends on the method and setting. Binding seen in cells or lysates may run through a third protein. Some results given as binding are weak or reduced against the parent protein; the word gives no strength.

Consider “P35 subunit of IL-35 (from UniProt P29459 23-219)”, for which the binding entry in experiment [1] and in experiment [2] was “binds” in each case.
